Results are given in words; binding and its absence hold for the method and conditions named. Binding seen in cells or lysates may run through a third protein. Some binding calls cover weakened binding; strength is not graded here.
Molecular target: EZH2 (human (endogenous in LN229)) (UniProt Q15910)
Assay: co-IP; LN229 cell lysate (lysis buffer with protease inhibitor cocktail) incubated with anti-CBX2 antibody, anti-EZH2 antibody or normal rabbit IgG overnight at 4°C; protein A/G magnetic beads for 1 h at room temperature; washed with lysis buffer; analysed by Western blot

Sequences of proteins named here, by UniProt entry; tags and fusion partners are left off.
UniProt Q15910: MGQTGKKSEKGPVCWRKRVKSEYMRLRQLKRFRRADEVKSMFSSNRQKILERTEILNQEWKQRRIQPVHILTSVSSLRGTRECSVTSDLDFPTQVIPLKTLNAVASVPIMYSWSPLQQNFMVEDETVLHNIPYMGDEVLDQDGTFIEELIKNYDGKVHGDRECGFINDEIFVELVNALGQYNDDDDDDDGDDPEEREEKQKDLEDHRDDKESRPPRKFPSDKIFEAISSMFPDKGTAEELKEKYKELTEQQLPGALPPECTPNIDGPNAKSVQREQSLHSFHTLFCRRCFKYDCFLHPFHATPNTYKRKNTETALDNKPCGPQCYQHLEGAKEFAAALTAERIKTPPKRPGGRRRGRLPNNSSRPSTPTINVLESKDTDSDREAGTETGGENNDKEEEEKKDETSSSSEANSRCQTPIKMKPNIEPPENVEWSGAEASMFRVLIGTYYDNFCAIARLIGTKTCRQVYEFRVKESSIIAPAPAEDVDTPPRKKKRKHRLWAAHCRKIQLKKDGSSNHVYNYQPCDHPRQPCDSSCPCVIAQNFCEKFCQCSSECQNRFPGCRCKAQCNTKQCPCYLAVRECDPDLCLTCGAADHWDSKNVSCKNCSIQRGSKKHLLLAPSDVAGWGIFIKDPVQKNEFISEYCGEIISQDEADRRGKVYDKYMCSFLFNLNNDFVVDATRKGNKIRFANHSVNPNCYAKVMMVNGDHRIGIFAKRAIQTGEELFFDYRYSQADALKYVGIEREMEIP
UniProt Q14781: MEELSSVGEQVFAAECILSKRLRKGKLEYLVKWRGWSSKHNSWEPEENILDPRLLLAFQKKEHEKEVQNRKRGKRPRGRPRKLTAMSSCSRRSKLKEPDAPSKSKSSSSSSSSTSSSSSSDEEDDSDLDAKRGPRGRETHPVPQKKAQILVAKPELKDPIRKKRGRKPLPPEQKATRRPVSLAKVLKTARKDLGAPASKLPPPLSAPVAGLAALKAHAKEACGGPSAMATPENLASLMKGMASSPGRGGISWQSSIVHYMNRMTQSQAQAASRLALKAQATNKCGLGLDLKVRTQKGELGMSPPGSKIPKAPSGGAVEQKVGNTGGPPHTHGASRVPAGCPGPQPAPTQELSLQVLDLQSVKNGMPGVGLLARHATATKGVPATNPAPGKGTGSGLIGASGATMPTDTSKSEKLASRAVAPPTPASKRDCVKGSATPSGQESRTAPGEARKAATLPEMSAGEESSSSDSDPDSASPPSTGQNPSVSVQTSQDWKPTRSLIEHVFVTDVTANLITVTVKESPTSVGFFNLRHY

## Chromobox (CBX) 2 (from UniProt Q14781 1-532)
  binding: binds

From PMC11303140
